Paper PMC9023744, “The Cytochrome P450 OxyA from the Kistamicin Biosynthesis Cyclization Cascade is Highly Sensitive to Oxidative Damage” (Frontiers in Chemistry, 2022)

Chains of the proteins cited; added tags and fusions are not shown.
UniProt A0A1V0AG67, entry or part of it: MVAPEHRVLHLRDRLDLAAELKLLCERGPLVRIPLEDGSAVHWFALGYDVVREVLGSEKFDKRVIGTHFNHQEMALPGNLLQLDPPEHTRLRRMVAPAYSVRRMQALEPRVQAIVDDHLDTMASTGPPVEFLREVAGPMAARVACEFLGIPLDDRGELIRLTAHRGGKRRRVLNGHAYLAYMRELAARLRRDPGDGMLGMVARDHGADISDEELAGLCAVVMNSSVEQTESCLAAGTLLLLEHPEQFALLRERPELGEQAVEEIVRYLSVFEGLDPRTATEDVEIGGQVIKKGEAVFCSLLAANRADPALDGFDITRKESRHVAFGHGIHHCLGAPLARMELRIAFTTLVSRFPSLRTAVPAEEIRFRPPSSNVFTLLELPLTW

Tests used:
OxyAkis = biological target: T1, OxyAkis ([Actinomadura] parvosata, UniProt A0A1V0AG67); test: UV-visible difference spectroscopy titration, one-site model; type: binding
T1 construct: gene BKM31_54160; pET28a, His-tagged, expressed in E. coli Arctic Express; Ni-NTA, anion exchange, size exclusion

OxyCkis = biological target: T2, OxyCkis; conditions: 50 mM Tris-HCl pH 8, 30°C; 2.5 µM enzyme; DMSO
T2 construct: gene OxyC

`Clc1ccccc1C(c1ccccc1)(c1ccccc1)n1ccnc1` [clotrimazole] gave a Kd (OxyAkis) of 272 ± 88.4 µM and a Kd (OxyCkis) of 22.5 ± 3.2 µM.
